Source: the supplement of paper PMC10849652
The list shows a part of the results.

Chains of the proteins cited; added tags and fusions are not shown. Lines headed by an entry give the natural chain unless they say otherwise; changes in a name come on top.
UniProt Q13136: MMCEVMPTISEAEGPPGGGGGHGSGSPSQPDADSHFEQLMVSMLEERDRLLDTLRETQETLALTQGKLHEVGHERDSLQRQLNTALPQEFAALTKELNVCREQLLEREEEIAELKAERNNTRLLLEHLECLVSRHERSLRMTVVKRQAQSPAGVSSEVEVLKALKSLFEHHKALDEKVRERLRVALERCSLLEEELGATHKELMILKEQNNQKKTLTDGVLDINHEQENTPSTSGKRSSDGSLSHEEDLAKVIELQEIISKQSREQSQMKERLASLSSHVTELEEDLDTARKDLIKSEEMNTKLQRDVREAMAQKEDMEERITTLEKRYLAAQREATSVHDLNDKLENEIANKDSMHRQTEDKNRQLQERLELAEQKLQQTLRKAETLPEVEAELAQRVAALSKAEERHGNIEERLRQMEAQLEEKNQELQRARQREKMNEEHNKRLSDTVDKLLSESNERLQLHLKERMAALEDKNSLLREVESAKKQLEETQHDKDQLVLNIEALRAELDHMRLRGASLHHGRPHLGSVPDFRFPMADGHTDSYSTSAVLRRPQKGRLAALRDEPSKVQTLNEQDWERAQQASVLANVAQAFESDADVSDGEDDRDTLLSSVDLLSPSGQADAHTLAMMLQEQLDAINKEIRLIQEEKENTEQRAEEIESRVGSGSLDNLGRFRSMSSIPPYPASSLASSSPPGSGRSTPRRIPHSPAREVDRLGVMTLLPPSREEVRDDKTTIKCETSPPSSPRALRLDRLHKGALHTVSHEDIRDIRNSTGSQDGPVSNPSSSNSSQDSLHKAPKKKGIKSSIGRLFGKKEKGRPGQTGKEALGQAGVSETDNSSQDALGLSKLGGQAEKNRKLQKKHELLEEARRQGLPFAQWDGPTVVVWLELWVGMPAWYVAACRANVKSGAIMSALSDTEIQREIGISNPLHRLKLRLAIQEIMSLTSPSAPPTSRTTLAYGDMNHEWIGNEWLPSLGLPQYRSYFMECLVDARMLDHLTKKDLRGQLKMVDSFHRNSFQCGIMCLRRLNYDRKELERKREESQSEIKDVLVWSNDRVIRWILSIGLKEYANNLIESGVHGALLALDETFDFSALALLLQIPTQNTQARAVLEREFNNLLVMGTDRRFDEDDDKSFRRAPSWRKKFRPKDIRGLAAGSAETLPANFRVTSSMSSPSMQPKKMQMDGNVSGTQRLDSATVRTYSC
UniProt P00491: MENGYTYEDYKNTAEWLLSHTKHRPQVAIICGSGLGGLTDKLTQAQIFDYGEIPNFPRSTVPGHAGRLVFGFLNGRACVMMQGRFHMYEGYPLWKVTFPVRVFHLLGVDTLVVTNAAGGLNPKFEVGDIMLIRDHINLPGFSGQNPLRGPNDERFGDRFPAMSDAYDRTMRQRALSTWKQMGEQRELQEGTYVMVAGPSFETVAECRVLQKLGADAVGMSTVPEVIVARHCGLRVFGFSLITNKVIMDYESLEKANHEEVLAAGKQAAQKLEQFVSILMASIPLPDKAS
UniProt Q08752, whole entry, looked up: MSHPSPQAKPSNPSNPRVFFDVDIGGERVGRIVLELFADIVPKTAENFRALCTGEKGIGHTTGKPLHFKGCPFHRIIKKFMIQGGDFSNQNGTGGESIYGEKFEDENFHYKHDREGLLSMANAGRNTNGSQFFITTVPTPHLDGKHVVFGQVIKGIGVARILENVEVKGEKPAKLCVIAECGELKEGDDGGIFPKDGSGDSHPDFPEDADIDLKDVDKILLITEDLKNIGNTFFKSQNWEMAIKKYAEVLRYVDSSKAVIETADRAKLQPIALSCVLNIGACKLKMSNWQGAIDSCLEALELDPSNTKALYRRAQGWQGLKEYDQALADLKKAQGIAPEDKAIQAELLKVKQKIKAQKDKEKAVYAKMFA
UniProt O43314: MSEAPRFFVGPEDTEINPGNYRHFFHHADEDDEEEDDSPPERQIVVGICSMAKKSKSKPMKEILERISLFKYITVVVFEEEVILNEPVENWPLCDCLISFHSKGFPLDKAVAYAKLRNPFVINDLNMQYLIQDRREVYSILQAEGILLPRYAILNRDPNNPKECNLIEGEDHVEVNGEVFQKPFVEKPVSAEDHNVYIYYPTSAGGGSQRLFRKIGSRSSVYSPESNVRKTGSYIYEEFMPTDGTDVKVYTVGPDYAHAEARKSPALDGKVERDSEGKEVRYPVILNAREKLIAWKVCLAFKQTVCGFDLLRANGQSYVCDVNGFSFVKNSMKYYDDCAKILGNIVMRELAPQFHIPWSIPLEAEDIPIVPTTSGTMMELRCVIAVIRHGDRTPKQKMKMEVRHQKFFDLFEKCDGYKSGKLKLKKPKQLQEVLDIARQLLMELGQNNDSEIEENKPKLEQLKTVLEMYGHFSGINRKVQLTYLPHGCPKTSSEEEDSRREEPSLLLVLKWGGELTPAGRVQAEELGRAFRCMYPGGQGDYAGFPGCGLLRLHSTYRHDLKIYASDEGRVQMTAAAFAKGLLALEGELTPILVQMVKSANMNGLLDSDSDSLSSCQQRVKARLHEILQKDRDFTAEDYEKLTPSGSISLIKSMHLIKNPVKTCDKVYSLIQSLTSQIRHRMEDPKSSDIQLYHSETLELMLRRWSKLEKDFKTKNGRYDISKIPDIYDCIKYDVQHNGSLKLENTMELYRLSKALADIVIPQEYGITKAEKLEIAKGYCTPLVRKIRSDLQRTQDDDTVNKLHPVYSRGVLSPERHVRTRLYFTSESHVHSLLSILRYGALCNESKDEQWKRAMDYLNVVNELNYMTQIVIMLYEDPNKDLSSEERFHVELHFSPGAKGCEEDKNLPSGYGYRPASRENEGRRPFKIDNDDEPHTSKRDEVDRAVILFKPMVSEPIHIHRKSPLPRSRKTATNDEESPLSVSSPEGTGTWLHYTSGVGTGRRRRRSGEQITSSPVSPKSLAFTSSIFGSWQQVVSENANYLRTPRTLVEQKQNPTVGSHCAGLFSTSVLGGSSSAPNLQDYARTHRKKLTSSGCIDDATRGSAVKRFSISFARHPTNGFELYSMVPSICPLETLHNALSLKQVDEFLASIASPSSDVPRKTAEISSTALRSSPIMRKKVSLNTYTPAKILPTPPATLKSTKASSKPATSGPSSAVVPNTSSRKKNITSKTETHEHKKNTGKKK
UniProt Q6EEV4: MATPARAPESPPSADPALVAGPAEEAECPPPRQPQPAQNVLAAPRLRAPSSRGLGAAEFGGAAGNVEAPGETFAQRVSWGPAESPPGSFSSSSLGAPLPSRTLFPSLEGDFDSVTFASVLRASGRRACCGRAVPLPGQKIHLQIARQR
UniProt P51805: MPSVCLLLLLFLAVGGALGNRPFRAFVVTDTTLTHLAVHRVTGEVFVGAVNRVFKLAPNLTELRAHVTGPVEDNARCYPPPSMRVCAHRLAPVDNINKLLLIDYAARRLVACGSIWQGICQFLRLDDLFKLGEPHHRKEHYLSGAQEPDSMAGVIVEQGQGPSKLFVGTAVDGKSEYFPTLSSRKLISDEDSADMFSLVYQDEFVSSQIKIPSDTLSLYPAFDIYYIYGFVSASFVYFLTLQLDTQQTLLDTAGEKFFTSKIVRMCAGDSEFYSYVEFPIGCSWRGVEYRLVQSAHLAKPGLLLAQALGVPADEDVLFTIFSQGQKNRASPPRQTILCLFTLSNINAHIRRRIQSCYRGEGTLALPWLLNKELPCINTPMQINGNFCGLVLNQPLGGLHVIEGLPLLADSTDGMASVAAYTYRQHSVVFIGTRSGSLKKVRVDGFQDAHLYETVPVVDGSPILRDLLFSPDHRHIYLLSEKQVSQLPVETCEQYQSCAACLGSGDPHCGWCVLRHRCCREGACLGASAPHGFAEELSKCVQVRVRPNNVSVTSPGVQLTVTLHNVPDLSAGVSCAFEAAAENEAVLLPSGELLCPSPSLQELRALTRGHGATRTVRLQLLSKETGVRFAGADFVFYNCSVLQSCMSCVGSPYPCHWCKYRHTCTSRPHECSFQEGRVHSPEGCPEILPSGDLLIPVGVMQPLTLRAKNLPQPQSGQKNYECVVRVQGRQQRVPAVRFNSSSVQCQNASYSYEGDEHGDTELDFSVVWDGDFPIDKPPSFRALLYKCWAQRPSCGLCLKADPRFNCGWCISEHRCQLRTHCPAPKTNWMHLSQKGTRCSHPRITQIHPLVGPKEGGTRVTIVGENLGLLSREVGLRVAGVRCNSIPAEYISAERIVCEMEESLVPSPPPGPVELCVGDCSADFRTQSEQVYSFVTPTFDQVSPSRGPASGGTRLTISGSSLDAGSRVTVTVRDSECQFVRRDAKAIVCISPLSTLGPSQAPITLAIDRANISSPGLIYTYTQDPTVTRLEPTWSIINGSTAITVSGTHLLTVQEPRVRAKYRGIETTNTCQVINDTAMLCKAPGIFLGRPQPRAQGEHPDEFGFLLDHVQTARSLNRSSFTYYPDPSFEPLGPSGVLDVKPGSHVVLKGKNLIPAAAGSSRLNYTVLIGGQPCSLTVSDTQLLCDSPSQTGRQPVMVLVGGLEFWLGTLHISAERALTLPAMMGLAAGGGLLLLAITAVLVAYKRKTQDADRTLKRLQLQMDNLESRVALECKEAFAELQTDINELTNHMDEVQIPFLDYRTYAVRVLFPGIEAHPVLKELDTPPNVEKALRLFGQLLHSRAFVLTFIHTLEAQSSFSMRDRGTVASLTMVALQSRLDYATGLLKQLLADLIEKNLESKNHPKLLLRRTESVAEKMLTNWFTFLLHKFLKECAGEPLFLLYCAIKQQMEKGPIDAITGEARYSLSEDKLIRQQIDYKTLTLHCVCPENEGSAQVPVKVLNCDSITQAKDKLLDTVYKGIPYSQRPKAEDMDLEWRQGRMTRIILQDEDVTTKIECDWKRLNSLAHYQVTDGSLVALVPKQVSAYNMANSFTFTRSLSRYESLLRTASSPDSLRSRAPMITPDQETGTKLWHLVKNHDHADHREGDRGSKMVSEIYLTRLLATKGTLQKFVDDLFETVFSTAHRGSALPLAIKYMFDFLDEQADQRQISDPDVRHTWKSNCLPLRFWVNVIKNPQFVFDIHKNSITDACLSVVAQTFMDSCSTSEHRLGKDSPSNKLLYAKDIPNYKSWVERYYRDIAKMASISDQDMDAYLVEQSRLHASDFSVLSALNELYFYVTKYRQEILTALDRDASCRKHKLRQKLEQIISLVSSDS
UniProt P45877: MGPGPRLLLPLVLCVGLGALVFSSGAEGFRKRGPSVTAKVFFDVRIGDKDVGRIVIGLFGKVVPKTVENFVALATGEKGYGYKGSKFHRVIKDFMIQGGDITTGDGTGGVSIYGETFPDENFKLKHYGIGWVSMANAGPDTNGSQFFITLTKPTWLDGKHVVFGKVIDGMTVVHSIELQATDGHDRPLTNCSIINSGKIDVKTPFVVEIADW
UniProt Q9HBL7: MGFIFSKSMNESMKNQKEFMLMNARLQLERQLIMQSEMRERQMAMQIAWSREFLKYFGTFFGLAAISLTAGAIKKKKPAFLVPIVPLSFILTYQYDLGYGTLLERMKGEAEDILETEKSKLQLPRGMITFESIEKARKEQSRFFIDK
UniProt Q9H2H8: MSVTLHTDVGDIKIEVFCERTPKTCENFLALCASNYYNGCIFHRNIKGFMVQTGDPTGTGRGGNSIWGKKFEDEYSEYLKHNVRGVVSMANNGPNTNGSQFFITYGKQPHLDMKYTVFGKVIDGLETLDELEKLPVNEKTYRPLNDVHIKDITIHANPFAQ
UniProt P0DPB5: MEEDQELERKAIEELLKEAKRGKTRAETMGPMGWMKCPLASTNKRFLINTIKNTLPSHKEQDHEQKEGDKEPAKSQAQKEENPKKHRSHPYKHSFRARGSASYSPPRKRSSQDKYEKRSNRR
UniProt P0DPB6, whole entry, looked up: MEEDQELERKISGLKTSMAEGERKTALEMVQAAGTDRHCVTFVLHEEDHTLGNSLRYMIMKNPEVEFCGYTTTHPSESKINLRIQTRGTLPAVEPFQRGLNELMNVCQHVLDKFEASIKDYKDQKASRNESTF
UniProt Q04941: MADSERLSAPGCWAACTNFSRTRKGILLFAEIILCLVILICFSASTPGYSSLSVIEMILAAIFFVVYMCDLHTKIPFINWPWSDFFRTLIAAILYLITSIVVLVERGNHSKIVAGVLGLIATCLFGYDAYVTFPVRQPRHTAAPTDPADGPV
UniProt P41247: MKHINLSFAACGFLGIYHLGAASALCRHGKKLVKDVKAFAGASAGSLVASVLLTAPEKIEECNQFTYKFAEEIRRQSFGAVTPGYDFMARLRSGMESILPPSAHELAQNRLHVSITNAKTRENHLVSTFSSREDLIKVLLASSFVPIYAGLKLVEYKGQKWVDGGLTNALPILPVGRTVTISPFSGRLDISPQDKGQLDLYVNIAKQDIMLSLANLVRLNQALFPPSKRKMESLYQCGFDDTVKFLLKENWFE
UniProt Q6P1K2: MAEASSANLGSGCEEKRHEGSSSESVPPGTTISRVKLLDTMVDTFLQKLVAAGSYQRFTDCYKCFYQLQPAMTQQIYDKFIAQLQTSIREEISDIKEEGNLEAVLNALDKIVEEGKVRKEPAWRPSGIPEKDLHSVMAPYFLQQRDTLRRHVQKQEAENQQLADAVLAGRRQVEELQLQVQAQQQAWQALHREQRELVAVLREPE

Experiments:
Experiment in all cases: log2 fold change, soluble protein after heating vs DMSO (PISA); higher = thermal stabilisation; K562 cells, 10 uM, 30 min; active = over 0.2 and 3.5 SD of the protein, either way, in both replicates (recomputed)
bafetinib = compound: Cc1ccc(NC(=O)c2ccc(CN3CC[C@H](N(C)C)C3)c(C(F)(F)F)c2)cc1Nc1nccc(-c2cncnc2)n1 [bafetinib]
Outline: (§1)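 K562 cells at 2×10^6 cells/mL were treated with 10 μM compound for 30 min. Aliquots were heated for 3 min across 48°C-58°C, pooled, and extracted in PBS with 0.5% NP-40 at 4°C; soluble protein was the supernatant after 21,000xg for 90 min. Soluble protein was quantified by TMTpro 16plex LC-MS/MS with channel sums equalised, and reported as log2 fold change in thermal stability against DMSO controls, with values from duplicates.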

[1] = compound: Cc1cccc(CC(=O)N2CCc3c2ccc(-c2cn(C)c4ncnc(N)c24)c3F)n1
Outline: as §1

nilotinib = compound: Cc1cn(-c2cc(NC(=O)c3ccc(C)c(Nc4nccc(-c5cccnc5)n4)c3)cc(C(F)(F)F)c2)cn1 [nilotinib]
Outline: as §1

[2] = compound: Cc1nc(Nc2n[nH]c3c2CN(C(=O)N[C@H](CN(C)C)c2ccccc2)C3(C)C)c2sccc2n1
Outline: as §1

dasatinib = compound: Cc1nc(Nc2ncc(C(=O)Nc3c(C)cccc3Cl)s2)cc(N2CCN(CCO)CC2)n1 [dasatinib]
Outline: as §1

[3] = compound: Cc1ncc(-c2ccnc(Nc3ccc(S(C)(=O)=O)cc3)n2)n1C(C)C
Outline: as §1

[4] = compound: Cn1cc(-c2ccc3c(c2)CCN3C(=O)Cc2cccc(C(F)(F)F)c2)c2c(N)ncnc21
Outline: as §1

[5] = compound: Cn1cc(-c2ccc3nnc(C(F)(F)c4ccc5ncccc5c4)n3n2)cn1
Outline: as §1

tipifarnib = compound: Cn1cncc1[C@@](N)(c1ccc(Cl)cc1)c1ccc2c(c1)c(-c1cccc(Cl)c1)cc(=O)n2C [tipifarnib]
Outline: as §1

mubritinib = compound: FC(F)(F)c1ccc(/C=C/c2nc(COc3ccc(CCCCn4ccnn4)cc3)co2)cc1 [mubritinib]
Outline: as §1

Target | log2 fold change (bafetinib) | log2 fold change [1] | log2 fold change (nilotinib) | log2 fold change [2] | log2 fold change (dasatinib) | log2 fold change [3] | log2 fold change [4] | log2 fold change [5] | log2 fold change (tipifarnib) | log2 fold change (mubritinib)
PPFIA1 (UniProt Q13136) | inactive: -0.011 | inactive: 0.024 | inactive: -0.223 | inactive: 0 | inactive: -0.156 | inactive: -0.073 | inactive: -0.056 | inactive: -0.053 | inactive: -0.078 | inactive: 0
POLG2 (UniProt Q9UHN1) | inactive: -0.002 | inactive: -0.028 | inactive: 0 | inactive: 0.075 | inactive: 0.039 | inactive: 0.013 | inactive: -0.018 | inactive: -0.038 | inactive: 0.047 | inactive: 0.021
POLR2I (UniProt P36954) | inactive: -0.044 | inactive: 0.024 | inactive: -0.026 | inactive: 0.233 | inactive: 0.079 | inactive: 0.338 | inactive: -0.029 | inactive: 0.021 | inactive: 0.072 | inactive: -0.054
PNP (UniProt P00491) | inactive: -0.036 | inactive: -0.005 | inactive: 0.013 | inactive: -0.003 | inactive: 0.049 | inactive: -0.004 | inactive: 0.017 | inactive: 0.005 | inactive: 0.034 | inactive: 0.039
PPID (UniProt Q08752) | inactive: 0.015 | inactive: 0.075 | inactive: -0.113 | inactive: -0.13 | inactive: -0.206 | inactive: 0.062 | inactive: 0.023 | inactive: 0.076 | inactive: -0.148 | inactive: -0.005
POLG (UniProt P54098) | inactive: 0.018 | inactive: 0.113 | inactive: 0.015 | inactive: 0.17 | inactive: 0.065 | inactive: -0.005 | inactive: 0.021 | inactive: 0.096 | inactive: 0.112 | inactive: 0.09
PMM1 (UniProt Q92871) | inactive: -0.2 | inactive: 0.022 | active: -0.606 | inactive: -0.152 | inactive: -0.027 | inactive: 0.003 | inactive: 0.05 | inactive: 0.025 | inactive: 0.134 | inactive: 0.066
PLEKHM2 (UniProt Q8IWE5) | inactive: -0.09 | inactive: -0.024 | inactive: -0.054 | inactive: -0.002 | inactive: -0.072 | inactive: -0.077 | inactive: 0.001 | inactive: -0.08 | inactive: -0.028 | inactive: 0.096
POP1 (UniProt Q99575) | inactive: 0.019 | inactive: 0.002 | inactive: 0.074 | inactive: -0.018 | inactive: 0.039 | inactive: -0.037 | inactive: 0.042 | inactive: 0.007 | inactive: -0.036 | inactive: -0.006
PPIP5K2 (UniProt O43314) | inactive: -0.033 | inactive: -0.026 | inactive: 0.065 | inactive: 0.046 | inactive: 0 | inactive: -0.005 | inactive: 0.051 | inactive: 0.004 | inactive: -0.032 | inactive: 0.014
POLR2M (UniProt Q6EEV4) | inactive: -0.215 |  | inactive: 0.107 | inactive: -0.016 | inactive: -0.003 | inactive: -0.022 | inactive: 0.135 |  | inactive: -0.095 | inactive: 0.035
PLXNA3 (UniProt P51805) | inactive: 0.045 | inactive: -0.073 |  |  | inactive: 0 |  |  |  |  | inactive: 0.027
PPIC (UniProt P45877) | inactive: -0.051 | inactive: -0.129 | inactive: -0.039 | inactive: -0.032 | inactive: -0.109 | inactive: -0.015 | inactive: -0.195 |  | inactive: 0.077 | inactive: -0.036
PNPLA6 (UniProt Q8IY17) | inactive: -0.134 |  | inactive: 0.172 | inactive: 0.312 | inactive: 0.083 | inactive: -0.227 | inactive: 0.135 | inactive: 0.078 | inactive: -0.144 | inactive: 0.138
POLR3G (UniProt O15318) | inactive: -0.049 | inactive: 0.074 | inactive: 0.032 | inactive: -0.041 | inactive: 0.04 | inactive: -0.026 | inactive: 0.008 | inactive: 0.004 | inactive: 0.103 | inactive: 0.069
POLE (UniProt Q07864) | inactive: -0.029 | inactive: -0.034 |  |  |  |  | inactive: -0.287 | inactive: 0.099 |  | 
PLGRKT (UniProt Q9HBL7) | inactive: -0.184 | inactive: 0.078 | inactive: -0.005 | inactive: -0.001 | inactive: 0.141 | inactive: 0.006 | inactive: 0.155 |  |  | inactive: -0.046

Laid out differently: results already given.
Target	log2 fold change (bafetinib)	log2 fold change [1]	log2 fold change (nilotinib)	log2 fold change [2]	log2 fold change (dasatinib)	log2 fold change [3]	log2 fold change [4]	log2 fold change [5]	log2 fold change (tipifarnib)	log2 fold change (mubritinib)
POLR3G (UniProt O15318)	inactive: -0.049	inactive: 0.074	inactive: 0.032	inactive: -0.041	inactive: 0.04	inactive: -0.026	inactive: 0.008	inactive: 0.004	inactive: 0.103	inactive: 0.069
PLGRKT (UniProt Q9HBL7)	inactive: -0.184	inactive: 0.078	inactive: -0.005	inactive: -0.001	inactive: 0.141	inactive: 0.006	inactive: 0.155			inactive: -0.046

Later entries

Target | log2 fold change (bafetinib) | log2 fold change [1] | log2 fold change (nilotinib) | log2 fold change [2] | log2 fold change (dasatinib) | log2 fold change [3] | log2 fold change [4] | log2 fold change [5] | log2 fold change (tipifarnib) | log2 fold change (mubritinib)
PPHLN1 (UniProt Q8NEY8) | inactive: -0.075 | inactive: 0.001 |  |  | inactive: 0 |  |  | inactive: -0.046 | inactive: 0.187 | inactive: 0.147
POLE4 (UniProt Q9NR33) | inactive: -0.019 | inactive: 0.069 | inactive: -0.009 | inactive: -0.01 |  | inactive: -0.009 | inactive: 0.158 |  | inactive: -0.107 | inactive: 0.002
PPIP5K2 (UniProt H0Y9S9) | inactive: -0.003 |  | inactive: 0.158 | inactive: 0.005 | inactive: 0.051 | inactive: 0.011 | inactive: 0.129 | inactive: -0.004 | inactive: 0.007 | inactive: 0.076
PPIL3 isoform 2 (UniProt Q9H2H8) | inactive: -0.05 | inactive: 0.039 | inactive: 0 | inactive: 0.106 | inactive: 0.023 | inactive: -0.01 |  | inactive: 0.074 | inactive: -0.106 | 
PLG (UniProt P00747) | inactive: 0.043 | inactive: -0.049 | inactive: -0.176 | inactive: 0.099 | inactive: 0 | inactive: 0.109 | inactive: 0.222 |  | inactive: -0.004 | 
POLR1D (UniProt P0DPB5) | inactive: -0.136 | inactive: -0.048 |  |  |  |  | inactive: -0.074 | inactive: -0.061 | inactive: 0.371 | 
POLR1D (UniProt P0DPB6) | inactive: -0.233 |  | inactive: -0.04 | inactive: -0.157 | inactive: -0.125 | inactive: -0.023 | inactive: -0.221 | inactive: 0.008 | inactive: 0 | inactive: -0.038
PLP2 (UniProt Q04941) | inactive: -0.054 | inactive: 0.067 | inactive: 0.04 | inactive: 0.013 | inactive: -0.017 | inactive: 0.073 | inactive: 0.012 |  | inactive: 0.134 | inactive: 0.111
POLR3F (UniProt Q9H1D9) | inactive: -0.064 | inactive: -0.012 | inactive: 0.004 | inactive: -0.006 | inactive: 0.038 | inactive: -0.011 | inactive: 0.048 | inactive: 0.036 | inactive: 0.097 | inactive: 0.026
PLS1 (UniProt Q14651) | inactive: -0.012 | inactive: 0.05 | inactive: -0.011 | inactive: -0.076 | inactive: -0.088 | inactive: -0.002 | inactive: 0.017 | inactive: 0.008 | inactive: -0.083 | inactive: 0.105
PLK1 (UniProt P53350) | inactive: -0.048 | inactive: 0.003 | inactive: -0.062 | active: -1.37 | inactive: -0.125 | inactive: 0.152 | inactive: 0.006 | inactive: -0.013 | inactive: 0.019 | inactive: 0.003
POLR3K (UniProt Q9Y2Y1) | inactive: -0.006 | inactive: -0.039 | inactive: 0.035 | inactive: -0.003 | inactive: 0.098 | inactive: 0.01 | inactive: -0.02 | inactive: -0.021 | inactive: 0.033 | inactive: -0.088
PNPLA4 (UniProt P41247) | inactive: -0.339 |  | inactive: 0.128 | inactive: -0.019 | inactive: -0.165 | inactive: -0.001 | inactive: 0.156 | inactive: 0.078 | inactive: -0.039 | active: 0.826
PMF1 (UniProt Q6P1K2) | inactive: -0.059 | inactive: -0.086 | inactive: 0.14 | inactive: -0.046 | inactive: -0.083 | inactive: 0.124 | inactive: 0.056 | inactive: 0.038 | inactive: -0.043 | inactive: 0.077
PMVK (UniProt Q15126) | inactive: 0.057 | inactive: -0.203 | inactive: -0.214 | inactive: -0.064 | inactive: -0.308 | inactive: -0.139 | inactive: -0.098 |  |  | inactive: -0.025
PPIB (UniProt P23284) | inactive: 0.033 | inactive: -0.023 | inactive: -0.018 | inactive: 0.036 | inactive: 0.056 | inactive: -0.039 | inactive: -0.115 | inactive: 0.013 | inactive: 0.06 | inactive: -0.065
